Results deposited as PubChem BioAssay AID743454 (Peter MacCallum Cancer Centre, 2014).
Here is a random part of about 18,000 reagents. 450 of all reagents (2.5%) were called active. 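Single biological run; no consistent viability z cut-off exists, so the class columns, not z-scores, define the calls.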 Reagent sequences are not shown.

Assay: 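Genes whose loss kills vorinostat-resistant colon cancer cells under vorinostat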 (primary screen)
System: human HCT116-VR colon cancer cells, selected for vorinostat resistance
Reagent: siRNA pool against human genes, 40 nM siRNA pool
Time to read-out: vorinostat for 24 h, read-out about 72 h after transfection
Treatment: vorinostat at 2.5 µM final
Measurement: 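Two measures, CellTiter-Fluor viability and luminescent caspase 3/7 activity, each as fold change against same-plate mock wells, mean of duplicates, then screen-wide robust z-score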
Direction: viability robust z-score: higher = more viable cells than screen typical; caspase robust z-score: higher = more caspase 3/7 activity than screen typical
Hit rule: 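Hits are knock-downs in viability class RV1/RV2 or caspase class CA1/CA2, excluding ones that killed cells in the no-drug cell-count arm; hits then retested with single siRNAs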

no.	gene	viability hit class	caspase hit class	viability robust z-score	caspase robust z-score	call
1	WDR35 (WD repeat domain 35)	no change	no change	0.99	-0.16	inactive
2	RNF183 (ring finger protein 183)	no change	CA2 (caspase activation)	-1.02	6.48	active
3	RPS25 (ribosomal protein S25)	no change	no change	-1.07	-1.01	inactive
4	PLCB2 (phospholipase C beta 2)	no change	no change	0.92	1.96	inactive
5	DAZ3 (deleted in azoospermia 3)	no change	no change	-0.07	-0.58	inactive
6	SPTA1 (spectrin alpha, erythrocytic 1)	no change	no change	-1.62	2.88	inactive
7	RALBP1 (ralA binding protein 1)	no change	no change	0.3	-0.73	inactive
8	ADAMTS18 (ADAM metallopeptidase with thrombospondin type 1 motif 18)	no change	no change	0.22	-0.73	inactive
9	SLC12A6	no change	no change	1.4	-0.6	inactive
10	ZNF157 (zinc finger protein 157)	no change	no change	-0.94	-0.16	inactive
11	VIPR2 (vasoactive intestinal peptide receptor 2)	no change	no change	0.04	-1.1	inactive
12	RABGEF1 (RAB guanine nucleotide exchange factor 1)	no change	no change	1.01	0.68	inactive
13	LY6E (lymphocyte antigen 6 family member E)	no change	no change	-0.66	-0.31	inactive
14	UBE4A (ubiquitination factor E4A)	no change	no change	-1.53	-0.58	inactive
15	IL13RA1 (interleukin 13 receptor subunit alpha 1)	no change	no change	0.03	1.36	inactive
16	SULT4A1 (sulfotransferase family 4A member 1)	no change	no change	-0.54	-0.21	inactive
17	MAOB (monoamine oxidase B)	no change	no change	0.55	0.13	inactive
18	SUV39H2 (SUV39H2 histone lysine methyltransferase)	no change	no change	-2.38	2.89	inactive
19	ACOT12 (acyl-CoA thioesterase 12)	no change	no change	-0.22	-0.88	inactive
20	ATP12A (ATPase H+/K+ transporting non-gastric alpha2 subunit)	no change	no change	-1.71	2.62	inactive
21	FYN (FYN proto-oncogene, Src family tyrosine kinase)	no change	no change	1.15	-1.01	inactive
22	SIDT1 (SID1 transmembrane family member 1)	no change	no change	0.46	-0.46	inactive
23	CHAC2 (ChaC glutathione specific gamma-glutamylcyclotransferase 2)	no change	no change	-0.31	0.13	inactive
24	STOX2 (storkhead box 2)	no change	no change	0.21	-0.6	inactive
25	CHEK2 (checkpoint kinase 2)	no change	no change	0.84	0.08	inactive
26	PRELID2 (PRELI domain containing 2)	no change	no change	-0.48	0.3	inactive
27	PTBP1 (polypyrimidine tract binding protein 1)	no change	no change	-0.26	-0.62	inactive
28	PKIG (cAMP-dependent protein kinase inhibitor gamma)	no change	no change	-0.99	1.36	inactive
29	OR5AP2 (olfactory receptor family 5 subfamily AP member 2)	no change	no change	0.42	0.43	inactive
30	WDR19 (WD repeat domain 19)	no change	no change	1.14	-0.74	inactive
31	IQSEC3 (IQ motif and Sec7 domain ArfGEF 3)	no change	no change	-1.44	-0.5	inactive
32	LIPJ (lipase family member J)	no change	no change	0.32	0.3	inactive
33	LRP2 (LDL receptor related protein 2)	no change	no change	-1.13	0.08	inactive
34	SPACA3 (sperm acrosome associated 3)	no change	no change	0.7	-0.21	inactive
35	IL31 (interleukin 31)	no change	no change	1.36	2.79	inactive
36	AKR1B15 (aldo-keto reductase family 1 member B15)	no change	no change	0.74	-1.2	inactive
37	SCRG1 (stimulator of chondrogenesis 1)	no change	no change	0.28	1.86	inactive
38	CDY2A (chromodomain Y-linked 2A)	no change	no change	-1.71	1.73	inactive
39	BMP10 (bone morphogenetic protein 10)	no change	no change	0.22	0.72	inactive
40	MYLK3 (myosin light chain kinase 3)	no change	no change	0.88	-0.46	inactive
41	ZNF782 (zinc finger protein 782)	no change	no change	1.4	-0.02	inactive
42	RPS19BP1 (ribosomal protein S19 binding protein 1)	no change	no change	-1.25	0.23	inactive
43	CEP128 (centrosomal protein 128)	no change	no change	1.48	-0.28	inactive
44	E4F1 (E4F transcription factor 1)	no change	no change	-0.2	0.42	inactive
45	CACNA2D1	no change	no change	-0.91	3.33	inactive
46	LMNB2 (lamin B2)	no change	no change	1.42	-0.06	inactive
47	CEP290 (centrosomal protein 290)	no change	no change	0.29	0.31	inactive
48	RBM10 (RNA binding motif protein 10)	no change	no change	-1.59	-1	inactive
49	STXBP6 (syntaxin binding protein 6)	no change	no change	0.62	-0.8	inactive
50	ENDOV (endonuclease V)	no change	no change	0.48	-0.19	inactive
51	MRPS14 (mitochondrial ribosomal protein S14)	no change	no change	1.09	0.3	inactive
52	STRN3 (striatin 3)	no change	no change	0.34	1.62	inactive
53	UQCC1 (ubiquinol-cytochrome c reductase complex assembly factor 1)	no change	no change	0.6	-0.04	inactive
54	RTN4R (reticulon 4 receptor)	no change	no change	-0.41	1.19	inactive
55	LNX2 (ligand of numb-protein X 2)	no change	no change	0.04	-0.62	inactive
56	PSMD9 (proteasome 26S subunit, non-ATPase 9)	no change	no change	-1.17	0.92	inactive
57	F2 (coagulation factor II, thrombin)	no change	no change	0.99	-0.53	inactive
